Measurements reported in PubChem BioAssay AID504808 (Drosophila RNAi Screening Center, 2011).
The deposit covers about 21,000 reagents; below is a random part of those with a known target gene and a result. Over the whole deposit, 18 (0.084%) were called active. 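Raw counts without plate normalisation, one of two replicates; the ratio scores behind the calls were not deposited.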 Not stated in the record: the amount of reagent, the time to read-out.

Aim: 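Chromatin factors that keep E2F targets switched off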 (primary screen)
Cells: Drosophila S2 cells
Reagent: long dsRNA against Drosophila genes
Detection: 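Dual luciferase plate measurements; E2F-specific signal taken as firefly over Renilla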
Direction: E2F firefly: higher = more E2F reporter activity; Renilla normaliser: higher = more normaliser reporter signal
Call rule: 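Called active if the normalised E2F reporter went up by over 50%; the cutoff is arbitrary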

gene knocked down	DRSC id	E2F firefly, rep 1	Renilla normaliser, rep 1	Call
tok	DRSC17087	70985	5564	inactive
CG16879 (retired record)	DRSC01918	97864	4428	inactive
CG7016	DRSC16174	1.10e5	6000	inactive
CG5466	DRSC15808	48904	3903	inactive
CG4752	DRSC04486	98292	4139	inactive
lolal	DRSC06948	67167	2953	inactive
Osi18	DRSC12181	1.14e5	5052	inactive
Fntb	DRSC15244	74888	4218	inactive
w-cup	DRSC03048	1.42e5	4481	inactive
CG4829	DRSC19920	1.59e5	6204	inactive
CG7548	DRSC10874	1.02e5	4081	inactive
NELF-B	DRSC17734	10771	732	inactive
CG42552 (retired record)	DRSC11512	89976	3944	inactive
CG12375	DRSC02163	90226	3293	inactive
Nek2	DRSC18124	8251	884	inactive
Ir60e	DRSC04227	1.03e5	4405	inactive
pira	DRSC19494	1.62e5	6679	inactive
CG9933	DRSC03276	95299	3988	inactive
Rbbp5	DRSC11778	1.32e5	7026	inactive
Cp7Fa	DRSC18032	1.11e5	5462	inactive
Cp7Fa	DRSC18033	95603	5050	inactive
hale	DRSC10882	1.41e5	6284	inactive
CG15213	DRSC10213	1.03e5	4259	inactive
Vago	DRSC19833	1.32e5	7305	inactive
slbo	DRSC04716	1.13e5	4928	inactive
qjt	DRSC10060	1.73e5	8527	inactive
CG31559	DRSC12172	1.40e5	7081	inactive
CG31559	DRSC12270	1.42e5	6382	inactive
CG6380	DRSC02950	94290	4571	inactive
CG15084	DRSC06515	70891	3254	inactive
CG9928	DRSC03274	1.20e5	135	inactive
CG31038	DRSC15051	1702	896	inactive
CG31038	DRSC16326	1.18e5	6506	inactive
CG31038	DRSC16327	1.27e5	7016	inactive
Bdp1	DRSC03192	96913	4546	inactive
CG12929	DRSC06242	1.58e5	4711	inactive
Mst57Da	DRSC16744	1.18e5	6396	inactive
CG6628	DRSC10679	97693	5548	inactive
CG13950	DRSC00368	1.66e5	6269	inactive
Mp	DRSC10193	70259	4164	inactive
Mp	DRSC11029	95389	4131	inactive
Mp	DRSC11030	81535	3689	inactive
CG1607	DRSC15130	1870	848	inactive
tkv	DRSC00860	1.24e5	4360	inactive
tkv	DRSC03623	91965	4083	inactive
CG9853	DRSC12343	73410	3603	inactive
Cyp4ac3	DRSC03304	94460	3717	inactive
loqs	DRSC02997	1.04e5	4258	inactive
CG32652 (retired record)	DRSC18942	80804	2888	inactive
Lip2	DRSC02577	1.60e5	5747	inactive
Lip2	DRSC02578	1.62e5	5367	inactive
Irk3	DRSC02047	87923	3693	inactive
CR31824	DRSC01517	1.23e5	6778	inactive
CG1572	DRSC19686	7900	780	inactive
CG3740	DRSC18508	1.16e5	5995	inactive
trbd	DRSC16494	58412	3597	inactive
Taf12L	DRSC00467	1.54e5	4737	inactive

Part of the list above, reformatted.
{"gene knocked down":"Osi18","DRSC id":"DRSC12181","E2F firefly, rep 1":1.14e5,"Renilla normaliser, rep 1":5052,"Call":"inactive"}
{"gene knocked down":"Fntb","DRSC id":"DRSC15244","E2F firefly, rep 1":74888,"Renilla normaliser, rep 1":4218,"Call":"inactive"}
{"gene knocked down":"w-cup","DRSC id":"DRSC03048","E2F firefly, rep 1":1.42e5,"Renilla normaliser, rep 1":4481,"Call":"inactive"}
{"gene knocked down":"CG4829","DRSC id":"DRSC19920","E2F firefly, rep 1":1.59e5,"Renilla normaliser, rep 1":6204,"Call":"inactive"}
{"gene knocked down":"CG7548","DRSC id":"DRSC10874","E2F firefly, rep 1":1.02e5,"Renilla normaliser, rep 1":4081,"Call":"inactive"}
{"gene knocked down":"NELF-B","DRSC id":"DRSC17734","E2F firefly, rep 1":10771,"Renilla normaliser, rep 1":732,"Call":"inactive"}
{"gene knocked down":"CG42552 (retired record)","DRSC id":"DRSC11512","E2F firefly, rep 1":89976,"Renilla normaliser, rep 1":3944,"Call":"inactive"}
{"gene knocked down":"CG12375","DRSC id":"DRSC02163","E2F firefly, rep 1":90226,"Renilla normaliser, rep 1":3293,"Call":"inactive"}
{"gene knocked down":"Nek2","DRSC id":"DRSC18124","E2F firefly, rep 1":8251,"Renilla normaliser, rep 1":884,"Call":"inactive"}
